{
  "source": "PubChem BioAssay AID1508600",
  "about": "(Functional Genomics Laboratory (NCATS/FGL), 2020)",
  "note": "Screen size: about 53,000 sequences; about 3,700 (7%) were called active.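 How the source made its calls: active means gene knockdowns whose robust z-score for IL-1 alpha signal is at least 2 or at most -2, so actives lie on both sides; inactive means the rest.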 The list shows a part of the results.",
  "data": [
    {"experiment": "Components of the Cytosolic LPS Sensing Pathway: Gene Identification via Genome-wide siRNA Screen;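 further: robust z of the log signal after scaling to non-targeting control siRNA wells of the plate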", "conditions": "RAW264.7 macrophages, IL-1a HTRF, actives lie on both sides, screened at 100 nM (by protocol), cells primed 5 h with Pam3CSK4 first", "procedure,_shortened": "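Cells (RAW264.7, 1×10^4 per well) were transfected with siRNA at 100 nM and cultured 48h at 37 degrees C. Pam3CSK4 was added for 5 hours; LipidA transfection followed for 24 hour. IL-1a was then measured by HTRF.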", "values": [
      {"sequence": "GGAUUUCUCGGAAGUCGAGTT against Cd3e", "z-score": "inactive: 0.517"},
      {"sequence": "GGGAAUGUGUUCUUUAUCATT against Commd9", "z-score": "inactive: 1.02"},
      {"sequence": "CCUAAAUCUCACCUCCACATT against Gp9", "z-score": "inactive: -0.83"},
      {"sequence": "GGAUGUGGAAGCAGUUUGUTT against Zfp101", "z-score": "inactive: 1.32"},
      {"sequence": "GGCAUCUUAAAAUUGACUGTT against Olfr701", "z-score": "inactive: -0.476"},
      {"sequence": "GGAGGAUGAAGGCCAUUCATT against Hnrnpd", "z-score": "inactive: 1.54"},
      {"sequence": "GGAUCUCUUAGGUAUCUUATT against Nlrp14", "z-score": "inactive: 1.45"},
      {"sequence": "GGGUAAUCAGAUUGAAAGATT against Dnah5", "z-score": "inactive: 0.0753"},
      {"sequence": "GCCACGAAGGUACUAUGUATT against Tbce", "z-score": "inactive: 0.176"},
      {"sequence": "GGUAGAAUACCUUCAGAUUTT against Ercc4", "z-score": "active: 2.81"},
      {"sequence": "GGCGGAGUAGACUUCAUAUTT against Olfr593", "z-score": "inactive: 0.363"},
      {"sequence": "UAUGUUGGAGCCUAUGUUCTT against Cacfd1", "z-score": "inactive: -0.231"},
      {"sequence": "GCCGUUAGAAACAAAGUCGTT against Taf3", "z-score": "active: -2.48"},
      {"sequence": "CCGGGUAGUCUUUUUGGUGTT against 9130019O22Rik", "z-score": "inactive: -1.72"},
      {"sequence": "GCAUAAUUCUUUCUUCGCATT against Krtap14", "z-score": "inactive: -0.638"},
      {"sequence": "GGAAGAUGACCUCUACAUCTT against Aldh3a1", "z-score": "inactive: -0.6"},
      {"sequence": "GGUAUUGAAAAGGUGAAGUTT against Lpp", "z-score": "inactive: -0.335"},
      {"sequence": "GGGACUUGAAGAUAAUCAATT against Dnajc10", "z-score": "inactive: 1.93"},
      {"sequence": "CCCAGUUAUCCUGAAAAGUTT against Ears2", "z-score": "inactive: 0.526"},
      {"sequence": "GGAAGUUGUAGAAGAAACUTT against Tcp11l2", "z-score": "inactive: -0.156"},
      {"sequence": "GGCCAUGACAUCACAGAACTT against Eif3f", "z-score": "inactive: -0.144"},
      {"sequence": "GGUACACAUAACACAGAUATT against Rpl23", "z-score": "inactive: 0.942"},
      {"sequence": "GGCUUAAACGAUUUUUCCATT against Elp3", "z-score": "inactive: 1.63"},
      {"sequence": "GGGAUACUUUCUUCGAGGATT against Soga3", "z-score": "active: -2.36"},
      {"sequence": "GGAACAUUGAUGGAAUUGGTT against Sec61a2", "z-score": "inactive: -0.0657"},
      {"sequence": "GGAAGUCAUUUUUUCCAAGTT against Msantd4", "z-score": "inactive: 1.12"},
      {"sequence": "CCAGUGAAUGACUUCACUCTT against Rpp21", "z-score": "inactive: 0.0309"},
      {"sequence": "GGAGGAAAUCAGAGAGAGGTT against Kank1", "z-score": "inactive: 0.00353"},
      {"sequence": "CCUAUAAUGCUUACAGGAUTT against Olfr477", "z-score": "inactive: 0.352"},
      {"sequence": "GCACGCAUUAAAUUCAAAGTT against Magea9-ps", "z-score": "inactive: -0.811"},
      {"sequence": "CGGGAAAUUUCUAUUGGACTT against Akr1c12", "z-score": "inactive: 0.312"},
      {"sequence": "CGCAGUGAUUAUGACCUCCTT against Thegl", "z-score": "active: -2.34"},
      {"sequence": "CCCAAUCAGCAUUUGCUCUTT against H2-M10.3", "z-score": "inactive: 0.104"},
      {"sequence": "GGCAUCAAUCAUGAGCAUUTT against Chrna4", "z-score": "inactive: 0.626"},
      {"sequence": "GGAAGUCACCUUUUAUCCUTT against Chac1", "z-score": "inactive: 1.59"},
      {"sequence": "GGGCAGCAAAGAAUUAACUTT against Ptpmt1", "z-score": "inactive: -0.619"},
      {"sequence": "GCUAAUUACAGCUUCUCCCTT against Yars", "z-score": "inactive: 0.294"},
      {"sequence": "CGGCAUGCUGUGGAAAAAGTT against Btrc", "z-score": "inactive: -0.869"},
      {"sequence": "GGACAAGGCCAAGCUAUAATT against Cntnap2", "z-score": "inactive: -1.47"},
      {"sequence": "GGAAUCACCCAUCUUUUUATT against Mmgt1", "z-score": "inactive: 1.11"},
      {"sequence": "GGAUCCUAGUGAUGAUAAUTT against Styx", "z-score": "inactive: 0.629"},
      {"sequence": "GGAAUGCAUGAUGAUGUCATT against Prl7a2", "z-score": "inactive: -0.783"},
      {"sequence": "GGUGCUCUCAAGUGGGAUUTT against Gm5114", "z-score": "active: -2.15"},
      {"sequence": "GGGAGAAACCAAGGAACUCTT against Wdr55", "z-score": "inactive: 0.21"},
      {"sequence": "GGGCUUCGAUGCUAUCAUCTT against Trmt9b", "z-score": "inactive: 1.31"},
      {"sequence": "GGUACACUGGAUUUUCUGGTT against Slc4a1", "z-score": "inactive: 0.13"},
      {"sequence": "GCUAAAUUGUAUCCCUUCUTT against Pou2af1", "z-score": "inactive: 0.082"},
      {"sequence": "CCUACUAUAUAUGUGAUGCTT against Jrk", "z-score": "inactive: -0.742"},
      {"sequence": "GGCUUAUCUAACCAAGUACTT against Prdm4", "z-score": "inactive: -0.299"},
      {"sequence": "GGGAUUUUACAGACUUAAGTT against Tm4sf1", "z-score": "inactive: -0.219"},
      {"sequence": "GGUAGAAGCCAAGAUGAGCTT against Abi3", "z-score": "inactive: -1.08"},
      {"sequence": "GGUCCACCUCAACAAGCUATT against Zfp536", "z-score": "active: 2.57"},
      {"sequence": "GCACUGGACCAAAGAACGGTT against Cercam", "z-score": "inactive: 1.14"}
    ]}
  ]
}
